{
  "source": "patent US5459146A",
  "about": "“4-substituted pyrazoloquinoline derivatives” (Schering Corporation, priority 1993, dated 1995)",
  "origin": "cited, not measured here",
  "test_system": "HSV-1 and HSV-2",
  "settings": "added to lidocaine or lidocaine hydrochloride; Haines et al.; cited from earlier work",
  "note": "At least one structure is not confirmed: it was looked up by name or label, or the drawing left a doubt.",
  "data": [
    {"smiles": "CC(C)(CO)[C@@H](O)C(=O)NCCC(=O)O", "note": "[pantothenate]", "values": [
      {"measurement": "antiviral activity of lidocaine or lidocaine hydrochloride on addition of the substance", "result": "significantly enhances"}
    ]}
  ]
}
